For one compound, IC50 results are on record in publication PMC4325971, “Sex-Differences in Renal Expression of Selected Transporters and Transcription Factors in Lean and Obese Zucker Spontaneously Hypertensive Fatty Rats” (Journal of Diabetes Research, 2015).

The test addresses T1, human OAT2 (organic anion transporter 2) (Homo sapiens, UniProt Q9Y694).
T1 construct: gene SLC22A7; full-length human OAT2 stably transfected in HEK293 cells (PortaCellTec Biosciences)
T1 sequence (Q9Y694 1-548): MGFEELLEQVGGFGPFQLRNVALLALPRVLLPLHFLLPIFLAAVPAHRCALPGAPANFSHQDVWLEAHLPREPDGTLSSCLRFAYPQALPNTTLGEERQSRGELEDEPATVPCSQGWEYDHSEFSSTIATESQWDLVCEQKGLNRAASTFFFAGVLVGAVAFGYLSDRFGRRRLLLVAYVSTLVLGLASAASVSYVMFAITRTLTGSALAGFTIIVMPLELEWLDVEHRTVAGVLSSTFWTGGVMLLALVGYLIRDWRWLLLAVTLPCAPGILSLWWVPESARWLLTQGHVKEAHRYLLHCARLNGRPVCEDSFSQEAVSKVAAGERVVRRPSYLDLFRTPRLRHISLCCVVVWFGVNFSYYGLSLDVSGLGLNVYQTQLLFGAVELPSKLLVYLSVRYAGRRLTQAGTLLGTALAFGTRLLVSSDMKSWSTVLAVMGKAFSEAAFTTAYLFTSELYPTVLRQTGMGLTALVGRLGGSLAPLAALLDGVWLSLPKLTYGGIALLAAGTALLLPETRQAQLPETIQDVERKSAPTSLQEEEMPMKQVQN
Kind of test: inhibition of [3H]cGMP uptake in OAT2-HEK293 cells. Type of test: cell-based. As to conditions: 10 μM cGMP (0.1 μM [3H]cGMP + 9.9 μM unlabeled), 5 min, 37°C, pH 7.4.

Molecules are shown by their SMILES.

The IC50 is the concentration that gives 50% inhibition.

As for `NS(=O)(=O)c1cc(C(=O)O)c(NCc2ccco2)cc1Cl` [furosemide], the IC50 is 10.9 ± 0.6 µM.
